Some of the results follow.
These sequences were tested against OsWRKY34 (Oryza sativa, UniProt Q0JBA9 1-250) (assay: protein-binding microarray (RPBM); PBS, 2% BSA, 51.3 ng/ul salmon testes DNA, 50 uM zinc acetate, 200 nM TF, 25 C, 1 h; high values mean tight binding). Conditions: protein: recombinant; tags: N-terminal polyhistidine and DsRed monomer fusion (pET32a); label: CyDye5-dUTP incorporated in the synthesized complementary strand; 3' TTTTT single-stranded linker to array surface; dsDNA, one strand shown.
Procedure, shortened: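 The binding signal is fluorescence intensity per feature, in arbitrary units, read on an Axon 4000B scanner. Polyhistidine- and DsRed-tagged transcription factors (N-terminal fusions) from E. coli BL21-CodonPlus were purified on Ni–NTA and applied at 200 nM for 1 h at 25 °C to a double-stranded, BSA-blocked custom Agilent array in buffer with 50 µM zinc acetate.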

Sequences of proteins named here, by UniProt entry; tags and fusion partners are left off.
UniProt Q0JBA9, entry or part of it: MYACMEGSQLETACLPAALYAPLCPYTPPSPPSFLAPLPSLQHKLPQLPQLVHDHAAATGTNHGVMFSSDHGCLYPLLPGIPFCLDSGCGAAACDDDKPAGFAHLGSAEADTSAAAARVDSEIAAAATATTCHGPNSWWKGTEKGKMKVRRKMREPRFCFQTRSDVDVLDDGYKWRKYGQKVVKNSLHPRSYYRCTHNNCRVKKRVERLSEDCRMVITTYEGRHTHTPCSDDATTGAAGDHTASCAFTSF

Point of comparison: “CCTTTGTTAGACATGTGATGTACATATCAATAGTATTAATCGGAGTCACCTAGTGCAG”, binding signal 8690 fluorescence intensity (a.u.). Against it:
- TCCTGTGGTACCCCTGTCGCCGAATCTACGCATCTGCCAACGGAGTCACCTAGTGCAG — lower, 8140 fluorescence intensity (a.u.)
- TCATCTGCTTCTCTCTCTCATCTCTCTTCTGCCATTGTTCCGGAGTCACCTAGTGCAG — higher, 10800 fluorescence intensity (a.u.)
- TGTTTCAGTTACTCCCTCCCATATCGTTTGACCCCGACTCCGGAGTCACCTAGTGCAG — higher, 9990 fluorescence intensity (a.u.)
- GGCTGCACTCCGGTACCAATCCACTTTTCCTTCCACGCTACGGAGTCACCTAGTGCAG — higher, 11900 fluorescence intensity (a.u.)
- CAACCACCACCGTGCACGCCACTGACGCCATGGCCGGACGCGGAGTCACCTAGTGCAG — lower, 8270 fluorescence intensity (a.u.)
- GCGCGCCGCCATGTCCGCTCCATCCCGGCCGCCACGCCCGCGGAGTCACCTAGTGCAG — higher, 11800 fluorescence intensity (a.u.)
- TTTTCATTGTTTACTTACATTGCTGGTGTTCATGTCAATCCGGAGTCACCTAGTGCAG — lower, 8340 fluorescence intensity (a.u.)
- GGGTGTGTGCGCATGTGTGTTTGTCGTGTATTAAAAAAAACGGAGTCACCTAGTGCAG — higher, 9130 fluorescence intensity (a.u.)
- ATGTGGTCCTCGGTGTTCTCGTTCCCATCTTTCTCTCTCTCGGAGTCACCTAGTGCAG — higher, 14900 fluorescence intensity (a.u.)
- TTGGTATTATTCACATCATGACTGATTGACGTTTCTCATACGGAGTCACCTAGTGCAG — higher, 11600 fluorescence intensity (a.u.)
- CTTCTGTCATATCACCTTGCCGCTGCTTCTGATCATCTCCCGGAGTCACCTAGTGCAG — lower, 8670 fluorescence intensity (a.u.)
- CAGAGTCACCTTCCTTTCATTTCCTTTCTCTTTTCTCTTTCGGAGTCACCTAGTGCAG — higher, 9680 fluorescence intensity (a.u.)
- CTAGCTGTGCGCGTAACGTTTTCTTTGCGCTTTTTCTGCTCGGAGTCACCTAGTGCAG — higher, 12200 fluorescence intensity (a.u.)
- TCCCCACCGTTGACCGAAGTTGACATCCAAGAATCCAGACCGGAGTCACCTAGTGCAG — lower, 8290 fluorescence intensity (a.u.)
- GGTTCTTGGAATCCACCGGTATTTTTGATCCATCCATCCACGGAGTCACCTAGTGCAG — higher, 9440 fluorescence intensity (a.u.)
- GTGAACAATGCCCAATTATGGTAGTAACACCCACTTTGTACGGAGTCACCTAGTGCAG — lower, 8500 fluorescence intensity (a.u.)
- CGGAGCGGGAGAGGGATAGGGAGATCGCGGGAGGGTAGAACGGAGTCACCTAGTGCAG — higher, 9430 fluorescence intensity (a.u.)
- GGCTGTTGGGTTTGTGGGCTTGTGCTAGGCGTCCCAGCTACGGAGTCACCTAGTGCAG — higher, 17800 fluorescence intensity (a.u.)
- CCATCTATATATACTGTTGTTTTCTTAATTACCATCTTGTCGGAGTCACCTAGTGCAG — higher, 9630 fluorescence intensity (a.u.)
- ATGCCTTGTGTTCGGCGAGGCCTTCGCCTTCTTGGGTCCGCGGAGTCACCTAGTGCAG — higher, 8700 fluorescence intensity (a.u.)
- AGGAGGAGGAGGAGGAGGAGGAGGAGGCGGTGGGAGGGATCGGAGTCACCTAGTGCAG — higher, 14800 fluorescence intensity (a.u.)
- TCTGGGTCATCCGGAGGCTCATTCGTCTCAAATTCAACATCGGAGTCACCTAGTGCAG — lower, 8240 fluorescence intensity (a.u.)
- CGTGTCCAACTTTGATTGTTCGTCTTATTTATTTTTAAAACGGAGTCACCTAGTGCAG — higher, 9530 fluorescence intensity (a.u.)
- ACTCAGTATATGATTAGTAACCTCGCTTTGGTTTACATCACGGAGTCACCTAGTGCAG — lower, 8140 fluorescence intensity (a.u.)
- TTGTATTCTTGTGCAAATGCACTGCCTAATTGGCCAGACCCGGAGTCACCTAGTGCAG — lower, 8040 fluorescence intensity (a.u.)
- CCATATCTAATATGTTTGATGGTTGGTTTTTGCGGTTGACCGGAGTCACCTAGTGCAG — higher, 9240 fluorescence intensity (a.u.)
- AAGTACCCCTTTTCGATTTTCTCTCTCTTGAACCATTTGCCGGAGTCACCTAGTGCAG — lower, 8390 fluorescence intensity (a.u.)
- CTAGCATATCTGTGTGTCTGTCTGTCTATCTATCTAATCTCGGAGTCACCTAGTGCAG — higher, 9820 fluorescence intensity (a.u.)
- TGTCCTTATCATCTTTGATCAAGTTTTTCTCTTTTCCTATCGGAGTCACCTAGTGCAG — higher, 9480 fluorescence intensity (a.u.)
- GTGTGTATATAGTATTAGTACGTTCTCCTCTACCTACCAACGGAGTCACCTAGTGCAG — lower, 8060 fluorescence intensity (a.u.)
- CTCTCTCGTTTTCCACGCGCACGCTTTCTAAAGTACTAAACGGAGTCACCTAGTGCAG — higher, 9690 fluorescence intensity (a.u.)
- TTGTGTGGATTACGTTGACTAATTAATGGCGAATTCGATCCGGAGTCACCTAGTGCAG — higher, 11700 fluorescence intensity (a.u.)
- TGAACTTATTCCTACTAGAGGCTCTAATCTTTTGGCCCAACGGAGTCACCTAGTGCAG — higher, 9590 fluorescence intensity (a.u.)
- CTGCGTTTATTTGGGTTTATTTGGGGCTGAGAGAGTACATCGGAGTCACCTAGTGCAG — higher, 13800 fluorescence intensity (a.u.)
- CGCACGTTAAAACTTGGGCTGGGACGCGAGGCGAGGGTTTCGGAGTCACCTAGTGCAG — lower, 8140 fluorescence intensity (a.u.)
- TGCCCTTGCTTTTCTACCATCATGACCTCCTCTACTCACACGGAGTCACCTAGTGCAG — lower, 8040 fluorescence intensity (a.u.)
- ATGTGGTAGGTCCTGTCGAGATTTAGTCAACTACTATTAGCGGAGTCACCTAGTGCAG — higher, 8720 fluorescence intensity (a.u.)
- TACTGAATATATTTTTGCTAACATGTTTGTTTTATATAATCGGAGTCACCTAGTGCAG — lower, 8540 fluorescence intensity (a.u.)
- CCAACCGATGACCCCGTGGTCACGCTCCACGCCATCCGCGCGGAGTCACCTAGTGCAG — lower, 8450 fluorescence intensity (a.u.)
- ACTGGTGCGACTACTTCCCGGGGCTCGCCGCCGTTGACCCCGGAGTCACCTAGTGCAG — higher, 11000 fluorescence intensity (a.u.)
- GCGGTCGCTATTCCTACTGCAGGTGATCCCAATCCGTTGACGGAGTCACCTAGTGCAG — lower, 8340 fluorescence intensity (a.u.)
